Results on 25 compounds are retold here after PubChem BioAssay AID180 (DTP/NCI, 2004).

The subject of this assay is BDF1 mice, Adenocarcinoma 755 s.c., tumor weight T/C. The experiment in a line: NCI In Vivo Anticancer Drug Screen. Data for tumor model Adenocarcinoma 755 (subcutaneous) in B6D2F1 (BDF1) mice. As to conditions: T/C endpoint: mean tumor weight, higher T/C = larger tumour; for T/C: evaluated on day 12. The method in brief: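 Readout: T/C, i.e. treated-group measurement over vehicle-control measurement. Endpoint is survival or tumor size in tumor-bearing mice given compound.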

Setting [1] is: dose: 225.0 mg/kg/injection, schedule: Q01DX011 (ip), vehicle: methylcellulose (MC).
The mark [2] stands for this setting: dose: 150.0 mg/kg/injection, schedule: Q01DX011 (ip), vehicle: methylcellulose (MC).
[3] abbreviates: dose: 60.0 mg/kg/injection, schedule: Q01DX011 (ip), vehicle: carboxymethylcellulose (CMC).
The mark [4] stands for this setting: dose: 10.0 mg/kg/injection, schedule: Q01DX011 (ip), vehicle: carboxymethylcellulose (CMC).
The mark [5] stands for this setting: dose: 4.0 mg/kg/injection, schedule: Q01DX011 (ip), vehicle: carboxymethylcellulose (CMC).
The mark [6] stands for this setting: dose: 16.0 mg/kg/injection, schedule: Q01DX011 (ip), vehicle: carboxymethylcellulose (CMC).

The list is a part of this screen's results and no random one: it gathers tests that were run many times, whatever their T/C, doses with no T/C, and many T/C values between a quarter and a half above the control. Further doses and runs are listed elsewhere. T/C: endpoint of the treated group in % of that of the vehicle group. Schedule codes are those of the source, taken here to give the interval after Q, in days (D) or hours (H), and the number of doses after X. Some T/C values carry the count of animals alive at the toxicity check (mostly the fifth day); where none is given, no animal had died by that day. Some entries hold several experiments; their values stand side by side, smallest first. Some doses have a count of surviving animals in place of a T/C: the source files T/C as zero there, which appears to mark a toxic dose or a test without result, not a measured value. Counts of survivors are from the toxicity check (mostly the fifth day) where no day follows; animals may have died later.

On to `CC(CBr)C(=O)N1CCN(C(=O)C(C)CBr)CC1` (stereo unspecified), for which the T/C (dose: 28.0 mg/kg/injection, schedule: Q01DX011 (ip), vehicle: methylcellulose (MC)) was 127 % of control; the T/C (dose: 57.0 mg/kg/injection, schedule: Q01DX011 (ip), vehicle: methylcellulose (MC)) was 126 % of control; the T/C (dose: 113.0 mg/kg/injection, schedule: Q01DX011 (ip), vehicle: methylcellulose (MC)) was 133 % of control; the T/C under setting [1] was 134 % of control.

Regarding `CCCCn1cnc2c(SCc3ccncc3)nc(N)nc21`, the survivor count (dose: 250.0 mg/kg/injection, schedule: Q01DX011 (ip), vehicle: methylcellulose (MC)) is reported as 2 of 10.

`Cn1c(=O)c2c(nc(N(CCO)CCO)n2C)n(C)c1=O`: the T/C (dose: 240.0 mg/kg/injection, schedule: Q01DX011 (ip), vehicle: saline) was 129 % of control. The survivor count (dose: 960.0 mg/kg/injection, schedule: Q01DX011 (ip), vehicle: saline) was 0 of 10.

As for `Nc1ncnc2c1ncn2CCCl`, the survivor count under setting [2] is 2 of 10.

With `CCSc1nc(Cl)cc(Sc2nc(N)nc3nc[nH]c23)n1`, under “dose: 288.0 mg/kg/injection, schedule: Q01DX011 (ip), vehicle: methylcellulose (MC)”, the survivor count is on record as 1 of 10.

On to `CCOC(=O)C(Cc1ccc(N(CCCl)CCCl)cc1)NP1(=O)NCCCO1` (stereo unspecified), for which the survivor count (dose: 36.0 mg/kg/injection, schedule: Q01DX011 (ip), vehicle: saline) is recorded as 2 of 10.

Turning to `CCCCNC(=O)c1n[se]nc1NC(N)=O`, under “dose: 75.0 mg/kg/injection, schedule: Q01DX011 (ip), vehicle: carboxymethylcellulose (CMC)”, the survivor count is 0 of 10.

For the compound `Cc1nnc2ncnc(N)c2n1`, the survivor count (dose: 45.0 mg/kg/injection, schedule: Q01DX011 (ip), vehicle: carboxymethylcellulose (CMC)) is listed as 0 of 10 and the survivor count under setting [3] is reported as 0 of 10.

`O=C(O)CCc1c[nH]c2ccc(N(CCCl)CCCl)cc12`: the survivor count under setting [4] is given as 0 of 10.

For `CCOC(=O)c1cc[c]([Sb](=[O])([OH])[OH])cc1`, the T/C (dose: 25.0 mg/kg/injection, schedule: Q01DX011 (ip), vehicle: methylcellulose (MC)) was 140 % of control. For the same compound, the survivor count is 6 of 10 (dose: 30.0 mg/kg/injection, schedule: Q01DX011 (ip), vehicle: carboxymethylcellulose (CMC)); 2 of 10 under setting [3]; 2 of 10 (dose: 200.0 mg/kg/injection, schedule: Q01DX011 (ip), vehicle: methylcellulose (MC)).

Take `CC1(c2ccccc2)O[C@@H]2C[C@H]3[C@@H]4CCC5=CC(=O)C=C[C@]5(C)[C@@]4(F)[C@@H](O)C[C@]3(C)[C@]2(C(=O)CO)O1` (stereo partly specified): the survivor count (dose: 22.0 mg/kg/injection, schedule: Q01DX011 (sc), vehicle: steroid suspending solution) was 5 of 10 and 10 of 16.

In the case of `Nc1nc(=S)c2ncn(C3OC(CO)C(O)C3O)c2[nH]1` (stereo unspecified), the survivor count under setting [5] was 5 of 10; the survivor count (dose: 6.0 mg/kg/injection, schedule: Q01DX011 (ip), vehicle: methylcellulose (MC)) was 5 of 10; the survivor count (dose: 6.6 mg/kg/injection, schedule: Q01DX011 (ip), vehicle: carboxymethylcellulose (CMC)) is given as 1 of 10.

Take `COc1cc2c3c(c4cc(OC)c(OC)cc4c2cc1OC)CN1CCC[C@H]1C3`: for the setting “dose: 20.0 mg/kg/injection, schedule: Q01DX006 (ip), vehicle: water”, the survivor count is 2 of 6.

For the compound `CC1(O)CC([CH2][Hg][I])OC([CH2][Hg][I])C1` (stereo unspecified), the survivor count is listed as 4 of 10 (dose: 100.0 mg/kg/injection, schedule: Q01DX011 (ip), vehicle: carboxymethylcellulose (CMC)) and 0 of 10 (dose: 200.0 mg/kg/injection, schedule: Q01DX011 (ip), vehicle: carboxymethylcellulose (CMC)).

On to `C[C@@H]1C[C@H]2CC[C@H](O2)[C@H](C)C(=O)O[C@@H](C)C[C@@H]2CC[C@@H](O2)[C@@H](C)C(=O)O[C@H](C)C[C@H]2CC[C@H](O2)[C@H](C)C(=O)O[C@@H](C)C[C@@H]2CC[C@@H](O2)[C@@H](C)C(=O)O1`, for which the T/C (dose: 37.5 mg/kg/injection, schedule: Q01DX011 (ip), vehicle: methylcellulose (MC)) was 129 % of control [9 of 10 alive]; the T/C (dose: 75.0 mg/kg/injection, schedule: Q01DX011 (sc), vehicle: methylcellulose (MC)) is 141 % of control; the T/C under setting [2] is 143 % of control. Moreover, the survivor count by setting is: (dose: 70.0 mg/kg/injection, schedule: Q01DX011 (sc), vehicle: olive oil, sesame oil, peanut oil) 3 of 10; (dose: 80.0 mg/kg/injection, schedule: Q01DX011 (sc), vehicle: olive oil, sesame oil, peanut oil) 2 of 10; (dose: 150.0 mg/kg/injection, schedule: Q01DX011 (sc), vehicle: olive oil, sesame oil, peanut oil) 1 of 8.

On to `O=C(CC[n+]1ccccc1)N1CCN(C(=O)CC[n+]2ccccc2)CC1`, for which the survivor count (dose: 5.0 mg/kg/injection, schedule: Q01DX011 (ip), vehicle: methylcellulose (MC)) is listed as 1 of 10.

In the case of `O=C(OCC1OC(n2cnc3c(=S)nc[nH]c32)C(OC(=O)c2ccccc2)C1OC(=O)c1ccccc1)c1ccccc1` (stereo unspecified), the T/C is 125 % of control [9 of 10 alive] under setting [6] and 22, 31, 35, 43 % of control (dose: 63.0 mg/kg/injection, schedule: Q01DX011 (ip), vehicle: carboxymethylcellulose (CMC)). The survivor count by setting is: (dose: 400.0 mg/kg/injection, schedule: Q01DX011 (ip), vehicle: carboxymethylcellulose (CMC)) 6 of 10; (dose: 500.0 mg/kg/injection, schedule: Q01DX011 (ip), vehicle: carboxymethylcellulose (CMC)) 4 of 10.

Turning to `C=CC1CN2CCC1CC2C(O)c1ccnc2ccc(OC)cc12` (stereo unspecified), under “dose: 115.85 mg/kg/injection, schedule: Q01DX011 (ip), vehicle: carboxymethylcellulose (CMC)”, the T/C is 135 % of control. The survivor count (dose: 231.7 mg/kg/injection, schedule: Q01DX011 (ip), vehicle: carboxymethylcellulose (CMC)) is listed as 2 of 10.

For the compound `Nc1nc(N)c(N=O)c(Nc2ccc(I)cc2)n1`, the T/C was 38, 41, 47 [9 of 10 alive], 52, 66 % of control under setting [5] and 24, 39, 63 % of control [9 of 10 alive] under setting [6]. Besides, the survivor count is 2 of 10 under setting [6]; 3 of 10 (dose: 64.0 mg/kg/injection, schedule: Q01DX011 (ip), vehicle: carboxymethylcellulose (CMC)); 0 of 10 (dose: 256.0 mg/kg/injection, schedule: Q01DX011 (ip), vehicle: carboxymethylcellulose (CMC)).

Turning to `Nc1ncnc2c1ccn2C1OC(CO)C(O)C1O` (stereo unspecified), for the setting “dose: 1.5 mg/kg/injection, schedule: Q01DX011 (ip), vehicle: carboxymethylcellulose (CMC)”, the survivor count is recorded as 3 of 10.

On to `O=CNC(Cc1ccc(N(CCCl)CCCl)cc1)C(=O)O` (stereo unspecified), for which the survivor count under setting [4] is on record as 6 of 10.

Regarding `O=S(=O)(NCc1ccccc1)c1ncnc2nc[nH]c12`, the survivor count (dose: 50.0 mg/kg/injection, schedule: Q01DX011 (ip), vehicle: carboxymethylcellulose (CMC)) is 5 of 10.

Regarding `CC1CC(C)(O)CC(C(O)CC2CC(=O)NC(=O)C2)C1=O` (stereo unspecified), the T/C (dose: 0.05 mg/kg/injection, schedule: Q01DX011 (ip), vehicle: alkali diluted with saline) is 142 % of control. The survivor count (dose: 0.4 mg/kg/injection, schedule: Q01DX011 (ip), vehicle: alkali diluted with saline) is listed as 2 of 10.

As to `OCC1OC(n2cnc3c(I)ncnc32)C(O)C1O` (stereo unspecified), the survivor count by setting is: (dose: 300.0 mg/kg/injection, schedule: Q01DX011 (ip), vehicle: saline) 4 of 10; (dose: 400.0 mg/kg/injection, schedule: Q01DX011 (ip), vehicle: saline) 5 of 10.

Turning to `Cn1c(=O)c2[nH]c(/N=N/N3CCCCC3)nc2n(C)c1=O`, the survivor count under setting [1] is on record as 4 of 10.
